Paper PMC10436556

Protein sequences, listed by entry. Tags and fused reporters are not part of them. Lines headed by an entry give the natural chain unless they say otherwise; changes in a name come on top.
UniProt Q14653: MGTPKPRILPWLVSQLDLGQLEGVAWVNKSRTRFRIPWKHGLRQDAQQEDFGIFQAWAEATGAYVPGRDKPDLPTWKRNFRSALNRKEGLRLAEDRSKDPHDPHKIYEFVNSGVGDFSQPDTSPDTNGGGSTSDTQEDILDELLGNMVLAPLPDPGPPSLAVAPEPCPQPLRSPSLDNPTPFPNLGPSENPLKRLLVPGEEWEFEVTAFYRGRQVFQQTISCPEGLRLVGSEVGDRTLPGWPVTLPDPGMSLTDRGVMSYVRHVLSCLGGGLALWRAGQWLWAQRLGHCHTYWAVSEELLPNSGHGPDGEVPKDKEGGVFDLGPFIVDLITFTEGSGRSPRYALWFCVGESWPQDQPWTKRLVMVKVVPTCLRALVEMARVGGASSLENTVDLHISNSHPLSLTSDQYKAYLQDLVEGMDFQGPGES
UniProt O15527, whole entry: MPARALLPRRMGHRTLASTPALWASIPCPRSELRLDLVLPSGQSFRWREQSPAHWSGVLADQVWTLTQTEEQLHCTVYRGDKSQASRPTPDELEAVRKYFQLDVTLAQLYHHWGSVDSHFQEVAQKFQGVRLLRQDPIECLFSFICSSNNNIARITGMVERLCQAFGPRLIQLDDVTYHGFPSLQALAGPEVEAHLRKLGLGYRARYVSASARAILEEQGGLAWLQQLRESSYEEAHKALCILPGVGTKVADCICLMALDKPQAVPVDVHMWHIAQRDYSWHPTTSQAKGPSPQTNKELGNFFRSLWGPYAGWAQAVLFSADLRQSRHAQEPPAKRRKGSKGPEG

What was measured:
Test in all cases: EMSA
His-IRF3 = His-IRF3 (UniProt Q14653); conditions: without OGG1, WCL/NE: 10 mM Tris-HCl pH 7.5, 1 mM EDTA, 50 mM NaCl, 2 mM DTT, 5% glycerol, 0.5% NP-40, BSA, poly(I:C), RT 20 min, His-IRF3: 10 mM Tris pH 7.5, 50 mM KCl, 1 mM DTT, recombinant protein, protein details: His
[1] = biological target: OGG1 (recombinant, ProSpec ENZ-253) (UniProt O15527); conditions: WCL/NE: 10 mM Tris-HCl pH 7.5, 1 mM EDTA, 50 mM NaCl, 2 mM DTT, 5% glycerol, 0.5% NP-40, BSA, poly(I:C), RT 20 min, His-IRF3: 10 mM Tris pH 7.5, 50 mM KCl, 1 mM DTT, commercial protein, letters put together from the description
[2] = system: OGG1 (recombinant, ProSpec ENZ-253) + His-IRF3; conditions: higher complex with both proteins, WCL/NE: 10 mM Tris-HCl pH 7.5, 1 mM EDTA, 50 mM NaCl, 2 mM DTT, 5% glycerol, 0.5% NP-40, BSA, poly(I:C), RT 20 min, His-IRF3: 10 mM Tris pH 7.5, 50 mM KCl, 1 mM DTT, commercial protein, protein details: His, letters put together from the description

Sequence: CTGTGTTTTCACTTTTCCTACATCAGCTGGGACTGCCCTTCTGTCAGGGATAA (double strand) [Pr0]
- binding result (His-IRF3): binds

Sequence: CTGTGTTTTCACTTTTCCTACATCAGCTGGGACTGCCCTTCTGTCAGGGATAA (double strand) [Pr1]
- binding result ([1]; 8-oxoG at top position 29): binds
- binding result ([2]; 8-oxoG at top position 29): binds
- binding result (His-IRF3; 8-oxoG at top position 29, letters put together from the description): binds

Sequence: CTGTGTTTTCACTTTTCCTACATCAGCTGGGACTGCCCTTCTGTCAGGGATAA (double strand) [Pr2]
- binding result ([1]; 8-oxoG at top position 48): binds
- binding result ([2]; 8-oxoG at top position 48): binds
- binding result (His-IRF3; 8-oxoG at top position 48, letters put together from the description): binds

The exact form of at least one protein or probe is not confirmed. For some of these results: At least one verdict was read from the data and is not stated in words by the source.
